Data: PubChem BioAssay AID1487 (National Center for Advancing Translational Sciences (NCATS), 2009)
Where “and” joins values, the source holds several entries; their conditions need not be identical. Equal entries are not always repeated. The list shows a part of the results. The main result of the screen is listed elsewhere. These columns were measured beside it and carry no call. The list favours compounds with an active or inconclusive main result. Potencies come from curve fits of mixed quality, noted in brackets.

Test: qHTS Assay for Modulators of Lamin A Splicing
Conditions: HeLa LMNA splicing GFP/RFP minigene ratio, 48 h
Procedure, shortened: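 S3 HeLa stable clones carrying a lamin A-EGFP splicing minigene plus DsRed2 were seeded at 600 cells/well in Opti-MEM with 2% FBS, pin-dosed and incubated 48 h at 37°C. Acumen cytometry (488 nm) gave the GFP/RFP total-intensity ratio.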

[1] = measured here: RFP viability control channel
[2] = measured here: GFP splicing reporter channel

SMILES | AC50 [1] | AC50 [2]
O=C(/C=C/c1ccc(S(=O)(=O)N2CCOCC2)cc1)NCc1ccccc1Cl | 20 µM [rising, single point] | –
O=c1cc(-c2ccc(O)cc2)oc2ccc(O)cc12 | 3.16 µM [rising, single point] | 3.16 µM [rising, partial curve, poor fit]
COc1ccc(C2CC(=O)c3cnc(N4CCN(Cc5ccccc5)CC4)nc3C2)cc1 (stereo not given) | 31.6 µM [rising, single point] | –
O=C(NCCCN1CCCCC1)c1cc(Sc2ccc(Cl)cc2)nc2ccccc12 | – | 0.00316 µM [falling, full curve, poor fit]
Cc1ccc(S(=O)(=O)N2CCC(C(=O)N[C@H](C(=O)NCc3ccco3)C(C)C)CC2)cc1 | 4.47 µM [falling, partial curve, poor fit] | –
Cc1c(C#N)c2ccccc2n1CC(=O)N1CCCC1 | 35.5 µM [rising, single point] | –
Oc1ccccc1/C=C/c1noc(-c2ccccc2O)n1 | 3.98 µM [falling, full curve] | 7.94 µM [falling, partial curve]
CC(C)c1ccc(/C=N\NC(=O)c2ccc(Cn3cccn3)o2)cc1 | 15.8 µM [rising, single point] | –
CC(=O)N1CCC2(CC1)OC(=O)C(C)=C2C(=O)Nc1ccccc1C(F)(F)F | 0.126 µM [falling, partial curve] | 0.0398 µM [falling, full curve]
CCOC(=O)C1CCN(C(=O)Cn2ncc3c([nH]c4ccc(C)cc43)c2=O)CC1 | – | 11.2 µM [rising, partial curve]
Cc1cc(C)n(-c2ccc(C(=O)Nc3nnc(C4CC4)s3)cc2)n1 | 0.112 µM [rising, full curve, poor fit] | –
CC(S)C(=O)NCC(=O)O (stereo not given) | 35.5 µM [falling, single point] | 0.891 µM [falling, single point]
CC(=O)N1CCc2ccc(S(=O)(=O)Nc3ccccc3Cl)cc21 | 11.2 µM [falling, partial curve, poor fit] | 5.01 µM [falling, partial curve]
Cc1cc(C)c2c(CN3CCN(C/C=C/c4ccccc4)CC3)cc(=O)oc2c1 | 14.1 µM [rising, partial curve, poor fit] | –
O=C(NCc1ccc(N2CCCC2=O)cc1)Nc1cccc(Cl)c1 | 15.8 µM [rising, partial curve] | 12.6 µM [rising, partial curve, poor fit]
CN(C)CCN1C(=O)c2ccccc2N(C)c2ccccc21 | 35.5 µM [falling, single point] | 35.5 µM [falling, single point]
CCCN1CCN(c2ncnc3scc(C4COc5ccccc5O4)c23)CC1 (stereo not given) | 0.1 µM [rising, full curve, poor fit] | –
CCOC(=O)C1CCC(CN(Cc2c(Cl)cccc2Cl)S(=O)(=O)c2ccc(F)cc2)CC1 (stereo not given) | – | 0.794 µM [falling, full curve]
CN(C)S(=O)(=O)c1ccc(N2CCCC2)c(C(=O)Nc2nc(-c3cc(F)ccc3F)cs2)c1 | 0.251 µM [rising, full curve] | 0.126 µM [rising, full curve, poor fit]
Cc1ccc(NC(=O)CSc2nc3c(c(=O)[nH]2)CCC3)cc1C | 22.4 µM [rising, single point] | 6.31 µM [rising, partial curve, poor fit]
CCCN(CCC)c1nc(N)nc(-c2cc(Cl)ccc2OC)n1 | 17.8 µM [rising, single point] | –
COC(=O)C(Cc1ccccc1)NC(=S)NC(=O)c1ccccc1 (stereo not given) | 5.62 µM [rising, partial curve, poor fit] | –
COc1ccc(Cn2c(O)c(C=Nc3ccc(O)cc3)c3ccccc3c2=O)cc1 | 12.6 µM [rising, partial curve] | 7.08 µM [rising, partial curve, poor fit]
O=C(COc1cccnc1[N+](=O)[O-])N1CCN(S(=O)(=O)c2ccc3ccccc3c2)CC1 | 35.5 µM [rising, single point] | –
Cc1ccc(NC(=S)NCc2ccccc2Cl)c(C)c1 | 35.5 µM [rising, single point] | 31.6 µM [rising, single point]
Cc1ccc(S(=O)(=O)CCC(=O)N2CCN(c3nc4c(C)c(Cl)ccc4s3)CC2)cc1 | – | 6.31 µM [falling, full curve, poor fit]
COc1ccc(OC)c(NC(=O)COC(=O)c2c3c(nc4ccccc24)CCCC3)c1 | – | 17.8 µM [falling, single point]

By substructure: those above containing two or more sulfur atoms (2)
SMILES | AC50 [1] | AC50 [2]
CN(C)S(=O)(=O)c1ccc(N2CCCC2)c(C(=O)Nc2nc(-c3cc(F)ccc3F)cs2)c1 | 0.251 µM [rising, full curve] | 0.126 µM [rising, full curve, poor fit]
Cc1ccc(S(=O)(=O)CCC(=O)N2CCN(c3nc4c(C)c(Cl)ccc4s3)CC2)cc1 | – | 6.31 µM [falling, full curve, poor fit]

(listing goes on)

SMILES | AC50 [1] | AC50 [2]
COc1ccc(NC(=O)c2cccc(S(=O)(=O)N(C)c3ccccc3)c2)cn1 | 20 µM [rising, partial curve] | 17.8 µM [rising, single point]
COC(=O)Nc1nc2ccc(C(=O)c3cccs3)cc2[nH]1 | 79.4 nM [falling, full curve] and 282 nM [falling, full curve] | 50.1 nM [falling, full curve] and 282 nM [falling, full curve]
CCC(CC)NC(=O)CC(c1ccccc1)c1ccccc1 | 1.12 µM [falling, partial curve, poor fit] | 15.8 µM [falling, single point]
c1ccc2c(-c3nc(-c4ccncc4)no3)cccc2c1 | 0.282 µM [rising, full curve, poor fit] | –
CS(=O)(=O)N(CC(=O)N1CCN(c2ccccc2F)CC1)c1cccc(C(F)(F)F)c1 | 11.2 µM [rising, partial curve] | –
O=C(NCCc1ccc(Cl)cc1)c1ccc(CS(=O)(=O)Cc2ccccc2F)o1 | – | 7.94 µM [falling, partial curve, poor fit]
CSc1ccc(CNC(=O)c2cc3c(=O)n(Cc4ccco4)ccc3nc2C)cc1 | 11.2 µM [rising, partial curve] | –
O=S(=O)(O)c1nc2ccccc2n1Cc1ccc(Cl)cc1Cl | 20 µM [rising, single point] | –
Cc1sc(N/N=C/c2cccs2)nc1-c1ccccc1 | 10 µM [rising, partial curve] | –
COc1ccc(Cn2ccc3nc(C)c(C(=O)Nc4ccc(C)c(F)c4)cc3c2=O)cc1 | 3.98 µM [rising, single point] | 4.47 µM [rising, full curve, poor fit]
CC(C)(O/N=C(\C(=O)N[C@@H]1C(=O)N2C(C(=O)[O-])=C(C[n+]3ccccc3)CS[C@@H]12)c1csc(N)n1)C(=O)O | 0.00501 µM [rising, full curve, poor fit] | 0.000316 µM [falling, full curve, poor fit]
CC(C)N(C(=O)CSc1nc2ccccc2n1Cc1ccccc1F)C(C)C | 35.5 µM [rising, single point] | 35.5 µM [rising, single point]
O=C(Nc1ccc(C(F)(F)F)cc1)c1cc(S(=O)(=O)NCC2COc3ccccc3O2)ccc1F (stereo not given) | – | 35.5 µM [falling, single point]
COc1ccc(N2CCN(C(=O)c3nc(-c4ccc(Cl)cc4)n4c3CCCCC4)CC2)cc1 | 35.5 µM [rising, single point] | 39.8 µM [rising, partial curve, poor fit]
CN1CCN(CCCN2c3ccccc3Sc3ccc(C(F)(F)F)cc32)CC1 | 14.1 µM [falling, partial curve] [middle of 4 runs] | –
COc1ccc(CCNC(=O)C2CC(c3ccc([N+](=O)[O-])cc3)=NO2)cc1 (stereo not given) | 35.5 µM [rising, single point] | –
CC(C)c1cccc(C(C)C)c1NC(=O)c1ccccc1 | 6.31 µM [rising, single point] | –
O=C(O)c1sc2cc(C(F)(F)F)cnc2c1-c1ccccn1 | – | 1.26 µM [rising, full curve, poor fit]
CCOC(=O)c1ccc(NS(=O)(=O)c2ccc3c(c2)CCCN3C(C)=O)cc1 | 12.6 µM [rising, single point] | 11.2 µM [rising, partial curve]
CCCOC(=O)c1cccc(Nc2nc(-c3cccnc3)nc3ccccc23)c1 | 20 µM [rising, partial curve, poor fit] | –
Cc1cccc(-n2c(C)cc(/C=N/NC(=O)c3ccc(CN4CCOCC4)cc3)c2C)c1 | 17.8 µM [rising, partial curve] | –
O=S(=O)(NCc1cn2ccsc2n1)c1ccc2c(c1)OCCO2 | 2 µM [rising, full curve, poor fit] | –
Cc1ccc(-n2c(SCC(=O)Nc3cccc(Cl)c3)nc3n[nH]c(C)c3c2=N)cc1 | 15.8 µM [falling, single point] | 12.6 µM [falling, single point]
CCn1c(C)c(C(C)=O)c(NCc2ccccc2)nc1=S | 22.4 µM [rising, single point] | 14.1 µM [rising, partial curve, poor fit]
CC(=O)N(CN1C(=O)c2ccccc2C1=O)c1cccc(C)c1 | – | 1.26 µM [rising, full curve, poor fit]
O=C1c2ccccc2NC(c2ccccc2)N1Cc1ccco1 (stereo not given) | 11.2 µM [rising, single point] | 0.794 µM [rising, full curve, poor fit]
